Test results as given in publication doi:10.1101/2023.07.24.550265.
These are yes or no findings as the source states them, for the method shown. Binding seen in cells or lysates may run through a third protein. These calls come from enrichment with a bait or labelling near it, and not all partners need be listed.

Chains of the proteins cited; added tags and fusions are not shown. Residues count along the entry.
UniProt P10721, residues 26-976: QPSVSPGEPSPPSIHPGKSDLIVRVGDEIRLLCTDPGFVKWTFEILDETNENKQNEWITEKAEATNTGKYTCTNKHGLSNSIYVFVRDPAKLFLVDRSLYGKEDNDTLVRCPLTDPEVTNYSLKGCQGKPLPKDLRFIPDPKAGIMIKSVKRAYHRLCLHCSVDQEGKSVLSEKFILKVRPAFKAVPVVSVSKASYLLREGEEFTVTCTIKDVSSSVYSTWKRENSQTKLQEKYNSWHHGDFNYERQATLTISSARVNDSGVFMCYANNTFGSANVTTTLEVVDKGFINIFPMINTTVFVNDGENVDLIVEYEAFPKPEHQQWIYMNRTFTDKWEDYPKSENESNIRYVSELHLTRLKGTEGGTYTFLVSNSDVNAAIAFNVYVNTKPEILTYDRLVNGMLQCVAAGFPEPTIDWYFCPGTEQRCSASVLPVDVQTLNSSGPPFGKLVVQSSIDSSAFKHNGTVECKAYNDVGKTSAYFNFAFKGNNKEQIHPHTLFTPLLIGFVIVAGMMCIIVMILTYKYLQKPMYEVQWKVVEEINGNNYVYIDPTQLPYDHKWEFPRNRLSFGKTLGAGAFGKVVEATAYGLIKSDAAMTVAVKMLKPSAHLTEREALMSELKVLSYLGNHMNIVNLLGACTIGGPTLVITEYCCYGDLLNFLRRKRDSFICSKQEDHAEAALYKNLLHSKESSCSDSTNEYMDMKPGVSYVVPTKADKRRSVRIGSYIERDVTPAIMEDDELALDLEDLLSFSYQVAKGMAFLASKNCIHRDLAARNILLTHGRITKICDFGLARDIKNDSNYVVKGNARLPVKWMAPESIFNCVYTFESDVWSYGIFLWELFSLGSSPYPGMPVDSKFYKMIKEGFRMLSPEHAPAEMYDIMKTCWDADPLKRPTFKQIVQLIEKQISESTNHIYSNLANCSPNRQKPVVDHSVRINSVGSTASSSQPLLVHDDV
UniProt P09874: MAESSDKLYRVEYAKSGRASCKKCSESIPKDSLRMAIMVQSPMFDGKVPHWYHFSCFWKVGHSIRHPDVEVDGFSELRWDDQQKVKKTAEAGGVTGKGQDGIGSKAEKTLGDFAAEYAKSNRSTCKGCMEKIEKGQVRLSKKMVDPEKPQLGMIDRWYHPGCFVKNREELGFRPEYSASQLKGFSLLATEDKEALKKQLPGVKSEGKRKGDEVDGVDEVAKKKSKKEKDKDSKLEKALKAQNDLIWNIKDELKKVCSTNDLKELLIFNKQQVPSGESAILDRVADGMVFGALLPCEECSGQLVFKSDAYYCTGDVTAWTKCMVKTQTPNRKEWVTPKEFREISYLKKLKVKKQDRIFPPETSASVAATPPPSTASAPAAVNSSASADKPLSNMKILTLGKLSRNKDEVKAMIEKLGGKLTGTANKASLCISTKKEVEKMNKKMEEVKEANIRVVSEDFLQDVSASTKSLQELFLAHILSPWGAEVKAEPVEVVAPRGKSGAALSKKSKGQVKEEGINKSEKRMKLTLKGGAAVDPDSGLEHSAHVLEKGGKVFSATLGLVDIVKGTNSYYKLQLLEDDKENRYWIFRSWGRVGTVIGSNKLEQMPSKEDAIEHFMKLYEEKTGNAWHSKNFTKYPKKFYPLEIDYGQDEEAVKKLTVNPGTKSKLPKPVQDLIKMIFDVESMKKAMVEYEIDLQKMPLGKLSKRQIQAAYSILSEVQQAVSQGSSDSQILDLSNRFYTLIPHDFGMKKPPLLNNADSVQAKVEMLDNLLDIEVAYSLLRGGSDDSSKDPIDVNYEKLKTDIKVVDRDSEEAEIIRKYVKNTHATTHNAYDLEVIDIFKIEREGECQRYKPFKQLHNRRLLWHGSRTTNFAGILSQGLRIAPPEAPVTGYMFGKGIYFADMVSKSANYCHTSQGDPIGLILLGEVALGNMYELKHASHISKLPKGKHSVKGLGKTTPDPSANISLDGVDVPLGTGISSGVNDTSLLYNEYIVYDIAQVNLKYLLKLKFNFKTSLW
UniProt P35222: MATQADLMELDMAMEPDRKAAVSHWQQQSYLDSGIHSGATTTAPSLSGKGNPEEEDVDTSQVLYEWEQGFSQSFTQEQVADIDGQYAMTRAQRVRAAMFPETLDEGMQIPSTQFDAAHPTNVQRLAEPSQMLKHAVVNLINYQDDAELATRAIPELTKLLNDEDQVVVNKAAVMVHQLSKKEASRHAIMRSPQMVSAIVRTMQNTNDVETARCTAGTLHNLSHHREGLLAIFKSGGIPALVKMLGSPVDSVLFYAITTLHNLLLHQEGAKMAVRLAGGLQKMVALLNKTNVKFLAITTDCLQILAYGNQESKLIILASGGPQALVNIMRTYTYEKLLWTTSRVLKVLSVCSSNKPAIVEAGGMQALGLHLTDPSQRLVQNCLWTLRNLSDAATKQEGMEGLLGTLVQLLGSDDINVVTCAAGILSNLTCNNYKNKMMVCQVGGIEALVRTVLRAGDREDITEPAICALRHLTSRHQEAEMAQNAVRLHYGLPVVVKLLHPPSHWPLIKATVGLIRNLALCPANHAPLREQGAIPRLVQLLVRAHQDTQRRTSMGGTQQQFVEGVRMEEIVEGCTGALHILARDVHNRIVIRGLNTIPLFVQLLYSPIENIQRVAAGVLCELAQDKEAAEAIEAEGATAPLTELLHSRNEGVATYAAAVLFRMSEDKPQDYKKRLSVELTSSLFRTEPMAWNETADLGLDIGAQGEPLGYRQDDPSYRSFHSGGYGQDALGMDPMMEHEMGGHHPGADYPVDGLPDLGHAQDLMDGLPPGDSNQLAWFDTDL

What follows are substances tested against KIT receptor tyrosine kinase (UniProt P10721) (assay: affinity purification with mass spectrometry).
With “Poly [ADP-ribose] polymerase 1 (from UniProt P09874 1-1014)” the binding was “binds”. β-catenin (from UniProt P35222 1-781) was tested, and the binding was “binds”. In the case of “DNA-dependent protein kinase, catalytic subunit (from UniProt P78527 1-4128)”, the binding was “binds”.
